Among the data in PubChem BioAssay AID330 (DTP/NCI, 2004) are T/C and survivor count values, retold here.

The experiment relates to P388 leukemia ip, CD2F1 mice, survival T/C. The experiment is described as follows: NCI In Vivo Anticancer Drug Screen. Data for tumor model P388 Leukemia (intraperitoneal) in CD2F1 (CDF1) mice. The settings on record: T/C endpoint: median survival time, higher T/C = longer survival.
Where [1] appears, read: dose: 6.25 mg/kg/injection, schedule: Q01DX009 (ip), vehicle: saline with Tween-80.
Where [2] appears, read: dose: 12.5 mg/kg/injection, schedule: Q01DX009 (ip), vehicle: saline with Tween-80.
Where [3] appears, read: dose: 25.0 mg/kg/injection, schedule: Q01DX009 (ip), vehicle: saline with Tween-80.
Where [4] appears, read: dose: 100.0 mg/kg/injection, schedule: Q01DX005 (ip), vehicle: Klucel (hydroxypropylcellulose) (HPC).
The mark [5] stands for this setting: dose: 200.0 mg/kg/injection, schedule: Q01DX005 (ip), vehicle: Klucel (hydroxypropylcellulose) (HPC).
The mark [6] stands for this setting: dose: 200.0 mg/kg/injection, schedule: Q01DX009 (ip), vehicle: saline with Tween-80.
Where [7] appears, read: dose: 200.0 mg/kg/injection, schedule: Q01DX005 (ip), vehicle: saline with Tween-80.
Where [8] appears, read: dose: 200.0 mg/kg/injection, schedule: Q04DX003 (ip), vehicle: saline with Tween-80.
Setting [9] is: dose: 400.0 mg/kg/injection, schedule: Q04DX003 (ip), vehicle: saline with Tween-80.
[10] abbreviates: dose: 50.0 mg/kg/injection, schedule: Q01DX009 (ip), vehicle: saline with Tween-80.
Where [11] appears, read: dose: 100.0 mg/kg/injection, schedule: Q01DX009 (ip), vehicle: saline with Tween-80.
Setting [12] is: dose: 100.0 mg/kg/injection, schedule: Q01DX009 (ip), vehicle: Klucel (hydroxypropylcellulose) (HPC).
The mark [13] stands for this setting: dose: 200.0 mg/kg/injection, schedule: Q01DX009 (ip), vehicle: Klucel (hydroxypropylcellulose) (HPC).
Setting [14] is: dose: 240.0 mg/kg/injection, schedule: Q01DX005 (ip), vehicle: saline with Tween-80.

The list does not hold the whole screen: it is rich in T/C values a quarter to a half above the control, in often repeated tests (any T/C) and in doses without a T/C. Further doses and runs are listed elsewhere. T/C: endpoint of the treated group in % of that of the vehicle group. Some entries give survivors of the animals treated and no T/C: the source holds a T/C of zero for them, seemingly a mark for toxic or unscored doses. Some survivor counts are full or nearly so, which does not show that the dose was tolerated: survival well below the control is almost never listed, so the zero probably covers shortened survival too. Counts of survivors are from the toxicity check (mostly the fifth day) where no day follows; animals may have died later. Schedule codes are those of the source, taken here to give the interval after Q, in days (D) or hours (H), and the number of doses after X. Some entries hold several experiments; their values stand side by side, smallest first. Where survival is the endpoint, this PubChem deposit counts one and a half times the control or more as active, and values a quarter to a half above the control carry no call in these data; other NCI protocols may use other cut-offs. Some T/C values carry the count of animals alive at the toxicity check (mostly the fifth day); where none is given, no animal had died by that day.

Regarding `COc1cc(OC)c(/C=C/c2c3ccccc3cc[n+]2C)c(OC)c1`, the T/C runs as follows: (dose: 0.78 mg/kg/injection, schedule: Q01DX009 (ip), vehicle: saline with Tween-80) 127 % of control; (dose: 1.56 mg/kg/injection, schedule: Q01DX009 (ip), vehicle: saline with Tween-80) 131 and 134 % of control [5 of 6 alive]. Also, the survivor count was 2 of 6 (dose: 3.13 mg/kg/injection, schedule: Q01DX009 (ip), vehicle: saline with Tween-80); 0 of 6 under setting [1]; 0 of 6 under setting [2]; 0 of 6 under setting [3].
In the case of `COc1ccc2c(c1)C(c1cccc3ccccc13)OC2=O` (stereo not drawn), the survivor count is listed as 6 of 6 under setting [4] and 6 of 6 under setting [5].
For the molecule `Cc1cc2nc3cc(C)c(N)cc3[n+](-c3ccccc3)c2cc1N`, the survivor count reads like this: (dose: 25.0 mg/kg/injection, schedule: Q01DX005 (ip), vehicle: Klucel (hydroxypropylcellulose) (HPC)) 4 of 6; (dose: 50.0 mg/kg/injection, schedule: Q01DX005 (ip), vehicle: Klucel (hydroxypropylcellulose) (HPC)) 0 of 6; under setting [4], 0 of 6; under setting [5], 0 of 6.
On to `CC(=O)OCCSSCCOC(C)=O`, for which, under setting [6], the survivor count is 5 of 6.
`Cc1ccc2nc(C[n+]3cccc4ccccc43)ccc2c1`: the T/C (dose: 1.5 mg/kg/injection, schedule: Q01DX005 (ip), vehicle: saline) was 125 % of control. Besides, the survivor count (dose: 6.25 mg/kg/injection, schedule: Q01DX005 (ip), vehicle: saline with Tween-80) is listed as 2 of 5; the survivor count (dose: 12.5 mg/kg/injection, schedule: Q01DX005 (ip), vehicle: saline with Tween-80) is listed as 0 of 5; the survivor count (dose: 50.0 mg/kg/injection, schedule: Q01DX005 (ip), vehicle: saline with Tween-80) was 0 of 5; the survivor count (dose: 100.0 mg/kg/injection, schedule: Q01DX005 (ip), vehicle: saline with Tween-80) is 0 of 5; the survivor count under setting [7] is recorded as 0 of 5.
As for `CCC(C)C1NC(=O)C(NC(=O)c2c3nc4c(C(=O)NC5C(=O)NC(C(C)CC)C(=O)N6CCCC6C(=O)N(C)CC(=O)N(C)C(C(C)C)C(=O)OC5C)ccc(C)c4oc-3c(C)c(=O)c2Cl)C(C)OC(=O)C(C(C)C)N(C)C(=O)CN(C)C(=O)C2CCCN2C1=O` (stereo not drawn), for the setting “dose: 1.6 mg/kg/injection, schedule: Q01DX009 (ip), vehicle: water”, the T/C was 138 [5 of 6 alive] and 139 % of control.
With `C[N+]1(C)CCC(Cl)CC1`, the survivor count is 2 of 6 (dose: 60.0 mg/kg/injection, schedule: Q01DX005 (ip), vehicle: saline); 0 of 6 (dose: 120.0 mg/kg/injection, schedule: Q01DX005 (ip), vehicle: saline); 0 of 6 (dose: 240.0 mg/kg/injection, schedule: Q01DX005 (ip), vehicle: saline).
For the molecule `CN1CCC/C1=C/C(=O)c1cccc([N+](=O)[O-])c1`, the survivor count (dose: 400.0 mg/kg/injection, schedule: Q04DX003 (ip), vehicle: Klucel (hydroxypropylcellulose) (HPC)) was 3 of 6.
For `CCC(=O)O[C@H]1CC[C@H]2[C@@H]3CC(=C(Br)Br)C4=CC(=O)CC[C@]4(C)[C@H]3CC[C@]12C`, the survivor count is recorded as 6 of 6 (dose: 100.0 mg/kg/injection, schedule: Q04DX003 (ip), vehicle: saline with Tween-80); 6 of 6 under setting [8]; 6 of 6 under setting [9].
In the case of `O=C1C=CC(=O)C(c2ccc(Cl)cc2)=C1`, the survivor count under setting [10] was 4 of 6.
For `CC(C)=CC(=O)CC(O)(C(F)(F)F)C(F)(F)Cl` (stereo not drawn), the survivor count is recorded as 3 of 6 under setting [10] and 2 of 6 under setting [11].
Consider `C=Cc1cnc([N+](=O)[O-])n1C`, for which the T/C is, setting by setting: under setting [12], 127 % of control; under setting [13], 127 % of control [5 of 6 alive].
In the case of `Cc1nc(-c2ccccc2)nc2c1nc(C(C)C)n2Nc1ccccc1`, the survivor count under setting [7] is 6 of 6.
For `COC(=O)NC(=Nc1cccc(C(=O)c2ccc3nc(NC(=O)OC)[nH]c3c2)c1)NC(=O)OC`, where the note is “dose: 60.0 mg/kg/injection, schedule: Q01DX005 (ip), vehicle: saline with Tween-80”, the T/C is 128 % of control. For the same molecule, the survivor count under setting [14] is 3 of 6.
Turning to `COC(=O)C1c2ccccc2CC(=O)N1N` (stereo not drawn), the survivor count (dose: 50.0 mg/kg/injection, schedule: Q01DX009 (ip), vehicle: Klucel (hydroxypropylcellulose) (HPC)) is 0 of 6; the survivor count under setting [12] is 0 of 6; the survivor count under setting [13] is listed as 0 of 6.
On to `C/C(=N\NC(=S)NNC(=S)N1CCCc2ccccc21)c1ccccn1`, for which the survivor count (dose: 400.0 mg/kg/injection, schedule: Q04DX002 (ip), vehicle: Klucel (hydroxypropylcellulose) (HPC)) was 4 of 6.
In the case of `COC(=O)c1c(O)c(OC)c(-c2ccccc2)[nH]c1=O`, the survivor count under setting [14] was 6 of 6.
With `COc1ccc(OC)c(C(=O)c2ccccc2C(=O)O)c1`, under setting [5], the survivor count is listed as 6 of 6.
`CCOSN1CCOCC1`: the survivor count (dose: 200.0 mg/kg/injection, schedule: Q04DX002 (ip), vehicle: saline) was 1 of 6 and the survivor count (dose: 400.0 mg/kg/injection, schedule: Q04DX002 (ip), vehicle: saline) is 1 of 6.
In the case of `CCSc1nc(Cl)cc(Sc2nc(N)nc3nc[nH]c23)n1`, the survivor count under setting [6] is 6 of 6 and the survivor count (dose: 300.0 mg/kg/injection, schedule: Q01DX009 (ip), vehicle: saline with Tween-80) was 4 of 6.
On to `C=CCNSc1cccc([N+](=O)[O-])c1`, for which the T/C is 129 % of control (dose: 12.5 mg/kg/injection, schedule: Q01DX009 (ip), vehicle: Klucel (hydroxypropylcellulose) (HPC)) and 126 % of control (dose: 25.0 mg/kg/injection, schedule: Q01DX009 (ip), vehicle: Klucel (hydroxypropylcellulose) (HPC)). The survivor count is recorded as 0 of 6 under setting [12] and 0 of 6 under setting [13].
In the case of `CCOC(=O)c1cc2c(ccn2OC)[nH]1`, under setting [8], the T/C was 128 % of control. For the same molecule, under setting [9], the survivor count was 2 of 6.
As for `COc1ccc2c(c1)[C@]13CCN(N=O)[C@H](C2)[C@@H]1CCC(=O)C3`, the survivor count (dose: 200.0 mg/kg/injection, schedule: Q01DX001 (ip), vehicle: saline with Tween-80) is recorded as 3 of 6 and the survivor count (dose: 400.0 mg/kg/injection, schedule: Q01DX001 (ip), vehicle: saline with Tween-80) is listed as 0 of 6.
For the molecule `NC1=NC(c2c3ccccc3cc3ccccc23)N=C(Nc2cccc(Cl)c2)N1` (stereo not drawn), the survivor count is on record as 6 of 6 under setting [3], 6 of 6 under setting [10], 5 of 6 under setting [11] and 1 of 6 under setting [6].
On to `Nc1cccc[n+]1CCCCCC[n+]1ccccc1N`, for which the survivor count (dose: 12.5 mg/kg/injection, schedule: Q01DX009 (ip), vehicle: saline) was 2 of 6.
For `[C-]#[N+]C1CCCCC1.[C-]#[N+]C1CCCCC1.[C-]#[N+]C1CCCCC1.[C-]#[N+]C1CCCCC1.[C-]#[N+]C1CCCCC1.[C-]#[N+]C1CCCCC1.[Mn]`, the survivor count runs as follows: (dose: 3.0 mg/kg/injection, schedule: Q01DX009 (ip), vehicle: saline with Tween-80) 1 of 6 and 2 of 6; under setting [1], 0 of 6; under setting [2], 0 of 6; under setting [3], 0 of 6; under setting [10], 0 of 6; under setting [11], 0 of 6. The survivor count under setting [6] is 0 of 6.
`COC(=O)C1=NC(=N)N=C(C(=O)OC)C12C(=O)Cc1ccccc12` (stereo not drawn): under setting [14], the survivor count is given as 0 of 6.
As for `Cc1nc2c(c(-c3ccc(Cl)cc3)n1)Cc1c(ccc3ccccc13)O2`, the survivor count (dose: 100.0 mg/kg/injection, schedule: Q01DX009 (ip), vehicle: saline) is given as 6 of 6.
On to `O=C1Nc2ccccc2/C1=N\N=c1/scc(-c2ccccc2)n1-c1ccccc1`, for which the survivor count (dose: 120.0 mg/kg/injection, schedule: Q01DX005 (ip), vehicle: saline with Tween-80) is reported as 6 of 6.
